From the supplement of paper PMC12067093, “Discovery and optimisation of a covalent ligand for TRIM25 and its application to targeted protein ubiquitination” (Chemical Science, 2025)
The list shows a part of the results.

Sequences of proteins named here, by UniProt entry; tags and fusion partners are left off. A change or cut given only in a name is not applied to a line headed by its entry.
UniProt Q92889: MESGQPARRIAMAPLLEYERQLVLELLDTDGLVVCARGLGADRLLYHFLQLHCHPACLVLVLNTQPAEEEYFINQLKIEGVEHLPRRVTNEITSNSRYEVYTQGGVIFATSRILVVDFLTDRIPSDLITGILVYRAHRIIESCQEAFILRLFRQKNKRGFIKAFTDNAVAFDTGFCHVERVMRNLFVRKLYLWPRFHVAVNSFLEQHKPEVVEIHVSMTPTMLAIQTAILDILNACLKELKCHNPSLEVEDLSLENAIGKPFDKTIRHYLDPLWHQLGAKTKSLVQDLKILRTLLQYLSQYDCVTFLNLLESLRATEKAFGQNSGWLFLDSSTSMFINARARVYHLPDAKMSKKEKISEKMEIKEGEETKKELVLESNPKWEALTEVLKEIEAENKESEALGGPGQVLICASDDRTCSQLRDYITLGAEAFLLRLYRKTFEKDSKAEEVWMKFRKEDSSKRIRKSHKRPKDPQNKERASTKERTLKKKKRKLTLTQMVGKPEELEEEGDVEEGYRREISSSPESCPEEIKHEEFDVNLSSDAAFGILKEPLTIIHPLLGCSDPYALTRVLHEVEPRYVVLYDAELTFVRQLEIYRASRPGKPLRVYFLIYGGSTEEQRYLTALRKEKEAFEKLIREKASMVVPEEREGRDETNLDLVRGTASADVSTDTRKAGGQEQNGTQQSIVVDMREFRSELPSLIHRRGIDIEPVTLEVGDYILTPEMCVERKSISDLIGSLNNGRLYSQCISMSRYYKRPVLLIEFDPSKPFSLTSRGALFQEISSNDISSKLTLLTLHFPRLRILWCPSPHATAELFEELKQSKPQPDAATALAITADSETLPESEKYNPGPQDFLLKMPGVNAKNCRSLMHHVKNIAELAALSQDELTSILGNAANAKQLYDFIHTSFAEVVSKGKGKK
UniProt Q96EK7: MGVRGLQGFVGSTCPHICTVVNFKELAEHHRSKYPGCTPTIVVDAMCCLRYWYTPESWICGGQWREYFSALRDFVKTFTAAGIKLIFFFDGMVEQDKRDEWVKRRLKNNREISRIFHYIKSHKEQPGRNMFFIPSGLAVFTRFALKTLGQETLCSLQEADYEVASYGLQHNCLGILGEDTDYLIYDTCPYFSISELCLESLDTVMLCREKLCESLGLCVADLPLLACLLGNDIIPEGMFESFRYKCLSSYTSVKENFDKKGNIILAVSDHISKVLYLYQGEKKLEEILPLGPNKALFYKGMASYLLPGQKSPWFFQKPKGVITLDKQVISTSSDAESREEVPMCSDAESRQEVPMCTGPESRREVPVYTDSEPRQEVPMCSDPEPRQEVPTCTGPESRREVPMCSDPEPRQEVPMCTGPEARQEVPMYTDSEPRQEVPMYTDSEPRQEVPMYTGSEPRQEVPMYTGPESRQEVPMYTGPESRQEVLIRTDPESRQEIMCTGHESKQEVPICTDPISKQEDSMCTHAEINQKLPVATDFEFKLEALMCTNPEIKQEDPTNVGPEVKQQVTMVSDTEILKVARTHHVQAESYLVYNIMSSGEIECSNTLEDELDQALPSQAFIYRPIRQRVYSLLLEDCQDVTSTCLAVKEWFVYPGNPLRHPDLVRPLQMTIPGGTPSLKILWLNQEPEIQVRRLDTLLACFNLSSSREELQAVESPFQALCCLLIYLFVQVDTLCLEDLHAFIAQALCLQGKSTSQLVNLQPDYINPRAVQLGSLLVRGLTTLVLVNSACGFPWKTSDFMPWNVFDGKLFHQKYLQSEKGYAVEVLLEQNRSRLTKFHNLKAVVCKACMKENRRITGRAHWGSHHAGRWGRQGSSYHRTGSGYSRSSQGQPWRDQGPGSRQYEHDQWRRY
UniProt Q9NQT5, whole entry, looked up: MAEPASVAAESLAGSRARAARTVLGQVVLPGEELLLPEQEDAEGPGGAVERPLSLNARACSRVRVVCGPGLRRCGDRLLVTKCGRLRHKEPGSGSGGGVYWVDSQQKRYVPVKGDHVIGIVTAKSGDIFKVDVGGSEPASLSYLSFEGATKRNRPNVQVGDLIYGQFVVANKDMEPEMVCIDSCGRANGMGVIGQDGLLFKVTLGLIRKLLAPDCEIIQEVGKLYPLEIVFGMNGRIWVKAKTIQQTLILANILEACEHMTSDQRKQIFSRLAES
UniProt Q96A65: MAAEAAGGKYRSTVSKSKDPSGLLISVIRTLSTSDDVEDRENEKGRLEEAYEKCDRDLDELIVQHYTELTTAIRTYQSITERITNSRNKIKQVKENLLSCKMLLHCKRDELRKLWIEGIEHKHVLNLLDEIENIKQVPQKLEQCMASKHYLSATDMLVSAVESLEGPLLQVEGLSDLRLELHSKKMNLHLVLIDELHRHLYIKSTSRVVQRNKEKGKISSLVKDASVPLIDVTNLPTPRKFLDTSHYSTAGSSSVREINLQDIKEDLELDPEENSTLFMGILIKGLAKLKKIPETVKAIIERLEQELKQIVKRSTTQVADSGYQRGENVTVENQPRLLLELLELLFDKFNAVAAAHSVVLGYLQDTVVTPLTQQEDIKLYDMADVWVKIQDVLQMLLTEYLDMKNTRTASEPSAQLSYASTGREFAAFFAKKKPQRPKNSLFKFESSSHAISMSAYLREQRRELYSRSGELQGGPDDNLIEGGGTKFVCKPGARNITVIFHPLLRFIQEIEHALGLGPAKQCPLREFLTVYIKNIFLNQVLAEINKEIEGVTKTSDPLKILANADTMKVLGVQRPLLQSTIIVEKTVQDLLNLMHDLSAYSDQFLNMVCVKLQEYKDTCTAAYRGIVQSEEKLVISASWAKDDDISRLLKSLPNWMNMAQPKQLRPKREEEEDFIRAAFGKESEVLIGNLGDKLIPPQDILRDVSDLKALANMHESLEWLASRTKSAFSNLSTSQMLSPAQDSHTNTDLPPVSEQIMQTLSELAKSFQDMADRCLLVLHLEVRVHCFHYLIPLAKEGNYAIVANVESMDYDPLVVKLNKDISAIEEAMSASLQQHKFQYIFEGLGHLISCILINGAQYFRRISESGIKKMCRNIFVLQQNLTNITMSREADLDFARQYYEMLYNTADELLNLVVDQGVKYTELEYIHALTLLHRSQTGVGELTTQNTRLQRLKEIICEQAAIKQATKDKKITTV
UniProt Q9NWS6: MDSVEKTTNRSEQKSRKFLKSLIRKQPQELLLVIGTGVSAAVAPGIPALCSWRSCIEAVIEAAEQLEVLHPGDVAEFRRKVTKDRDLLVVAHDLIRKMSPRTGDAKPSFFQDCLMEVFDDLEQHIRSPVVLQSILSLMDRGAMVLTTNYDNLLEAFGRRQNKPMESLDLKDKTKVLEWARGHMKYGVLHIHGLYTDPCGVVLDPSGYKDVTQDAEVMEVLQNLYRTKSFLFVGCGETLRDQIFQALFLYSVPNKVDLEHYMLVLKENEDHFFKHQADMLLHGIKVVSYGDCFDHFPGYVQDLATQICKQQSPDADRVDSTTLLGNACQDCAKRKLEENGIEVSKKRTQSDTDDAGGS
UniProt Q9BYI3: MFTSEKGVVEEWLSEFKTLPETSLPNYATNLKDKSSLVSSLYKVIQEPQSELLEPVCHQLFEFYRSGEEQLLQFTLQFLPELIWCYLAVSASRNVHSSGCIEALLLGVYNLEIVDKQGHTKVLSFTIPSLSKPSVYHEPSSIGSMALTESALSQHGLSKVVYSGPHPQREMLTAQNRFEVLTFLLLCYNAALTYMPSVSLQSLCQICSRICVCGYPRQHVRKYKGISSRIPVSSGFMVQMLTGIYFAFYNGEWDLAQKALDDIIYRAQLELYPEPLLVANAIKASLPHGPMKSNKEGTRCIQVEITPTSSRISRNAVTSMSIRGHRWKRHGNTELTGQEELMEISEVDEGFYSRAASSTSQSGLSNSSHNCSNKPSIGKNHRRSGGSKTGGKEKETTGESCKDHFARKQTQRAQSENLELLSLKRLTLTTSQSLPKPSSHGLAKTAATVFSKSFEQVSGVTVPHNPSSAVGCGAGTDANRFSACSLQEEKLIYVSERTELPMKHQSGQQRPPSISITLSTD
UniProt Q5T8I3: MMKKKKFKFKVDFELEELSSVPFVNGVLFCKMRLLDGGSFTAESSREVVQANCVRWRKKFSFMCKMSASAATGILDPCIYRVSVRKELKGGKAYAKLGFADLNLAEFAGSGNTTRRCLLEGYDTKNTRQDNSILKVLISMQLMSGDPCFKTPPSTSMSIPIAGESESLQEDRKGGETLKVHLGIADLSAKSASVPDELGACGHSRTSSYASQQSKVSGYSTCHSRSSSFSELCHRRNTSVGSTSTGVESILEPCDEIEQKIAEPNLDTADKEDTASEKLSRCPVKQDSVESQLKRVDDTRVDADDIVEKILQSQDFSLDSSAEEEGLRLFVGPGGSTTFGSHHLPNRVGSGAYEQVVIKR
UniProt P13804: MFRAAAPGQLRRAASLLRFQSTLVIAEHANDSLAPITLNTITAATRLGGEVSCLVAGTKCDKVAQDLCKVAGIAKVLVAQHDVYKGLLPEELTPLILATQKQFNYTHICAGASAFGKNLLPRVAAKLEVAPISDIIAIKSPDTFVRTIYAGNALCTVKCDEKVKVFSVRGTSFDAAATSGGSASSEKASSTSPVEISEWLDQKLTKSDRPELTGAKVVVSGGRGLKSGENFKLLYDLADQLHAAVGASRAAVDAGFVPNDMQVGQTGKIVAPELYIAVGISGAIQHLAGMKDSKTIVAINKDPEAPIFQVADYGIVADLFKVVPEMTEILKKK
UniProt Q9NRY5: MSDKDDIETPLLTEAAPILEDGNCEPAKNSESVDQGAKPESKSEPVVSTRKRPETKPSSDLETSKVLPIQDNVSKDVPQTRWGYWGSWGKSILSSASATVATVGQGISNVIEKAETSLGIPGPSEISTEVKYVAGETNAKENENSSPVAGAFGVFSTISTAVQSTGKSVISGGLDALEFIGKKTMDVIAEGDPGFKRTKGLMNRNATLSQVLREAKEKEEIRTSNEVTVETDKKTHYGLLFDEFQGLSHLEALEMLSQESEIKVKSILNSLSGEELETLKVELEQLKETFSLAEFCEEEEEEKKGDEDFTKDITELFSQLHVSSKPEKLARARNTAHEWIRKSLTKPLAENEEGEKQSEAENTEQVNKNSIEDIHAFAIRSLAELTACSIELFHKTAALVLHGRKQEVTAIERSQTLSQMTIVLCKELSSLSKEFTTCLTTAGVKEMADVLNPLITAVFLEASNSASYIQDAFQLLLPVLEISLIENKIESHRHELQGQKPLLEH
UniProt Q16134: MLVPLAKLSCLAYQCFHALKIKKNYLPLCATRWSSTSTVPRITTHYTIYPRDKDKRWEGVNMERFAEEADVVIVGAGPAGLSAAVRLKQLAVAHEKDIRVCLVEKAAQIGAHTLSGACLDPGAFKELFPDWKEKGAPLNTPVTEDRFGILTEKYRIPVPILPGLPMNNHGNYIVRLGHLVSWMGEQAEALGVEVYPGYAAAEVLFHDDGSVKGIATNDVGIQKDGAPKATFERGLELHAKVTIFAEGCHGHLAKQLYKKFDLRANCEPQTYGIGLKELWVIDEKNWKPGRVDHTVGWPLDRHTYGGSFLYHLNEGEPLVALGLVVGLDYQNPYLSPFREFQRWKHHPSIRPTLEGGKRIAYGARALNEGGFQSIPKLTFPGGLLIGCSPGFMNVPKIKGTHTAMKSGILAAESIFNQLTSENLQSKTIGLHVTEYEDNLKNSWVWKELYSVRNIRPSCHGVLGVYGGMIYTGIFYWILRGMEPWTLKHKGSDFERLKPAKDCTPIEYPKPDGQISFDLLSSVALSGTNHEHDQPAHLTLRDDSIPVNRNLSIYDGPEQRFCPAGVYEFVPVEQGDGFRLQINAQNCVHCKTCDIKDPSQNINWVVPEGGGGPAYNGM
UniProt Q96HE7: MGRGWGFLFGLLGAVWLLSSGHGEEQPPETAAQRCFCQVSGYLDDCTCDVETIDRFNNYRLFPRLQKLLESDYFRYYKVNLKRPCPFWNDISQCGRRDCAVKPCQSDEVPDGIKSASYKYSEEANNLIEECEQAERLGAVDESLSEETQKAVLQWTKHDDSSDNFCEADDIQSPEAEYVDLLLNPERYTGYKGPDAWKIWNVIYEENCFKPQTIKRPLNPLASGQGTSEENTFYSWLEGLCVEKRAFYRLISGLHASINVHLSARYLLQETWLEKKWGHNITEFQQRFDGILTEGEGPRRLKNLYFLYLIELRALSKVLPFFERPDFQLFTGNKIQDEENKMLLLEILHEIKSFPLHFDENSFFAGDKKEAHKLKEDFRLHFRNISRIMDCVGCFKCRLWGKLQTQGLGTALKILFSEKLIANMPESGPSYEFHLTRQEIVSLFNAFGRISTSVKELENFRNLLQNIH
UniProt Q01469, whole entry, looked up: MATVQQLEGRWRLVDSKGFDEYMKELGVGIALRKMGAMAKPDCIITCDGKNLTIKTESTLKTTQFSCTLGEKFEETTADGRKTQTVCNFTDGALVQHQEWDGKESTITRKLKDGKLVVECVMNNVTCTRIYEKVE

Compound: CC1Cc2ccccc2N1C(=O)C1CCCN(C1)C(=O)CCl (mixture of isomers) [TRIM25 ligand 11 (diastereomer mixture)]
Test: probe-labelled cysteine peptide fold change vs DMSO (competition) (log2 fold change); higher = less target engagement (more negative = stronger competition)
Conditions: THP-1, incubation time: 4 h
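Also: competitive chemoproteomic profiling in live THP-1 cells with an iodoacetamide desthiobiotin (IA-DTB) probe, comparing probe-labelled peptide intensities in compound-treated cells against DMSO-treated controls.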

Target | probe-labelled cysteine peptide fold change (10 µM) | probe-labelled cysteine peptide fold change (50 µM)
ERCC4_Q92889_176_AFTDNAVAFDTGFCHVER (UniProt Q92889) | -0.267 | -0.403
FAM120B_Q96EK7_404_EVPMCSDPEPR (UniProt Q96EK7) | -0.167 | -0.477
EXOSC3_Q9NQT5_184_DMEPEMVCIDSCGR (UniProt Q9NQT5) | -0.0603 | -0.242
EXOC4_Q96A65_786_VHCFHYLIPLAK (UniProt Q96A65) | 0.178 | 0.434
FAM118A_Q9NWS6_55_SCIEAVIEAAEQLEVLHPGDVAEFR (UniProt Q9NWS6) | 0.0464 | 0.136
EXOSC5_Q9NQT4_209_GLYSDTELQQCLAAAQAASQHVFR (UniProt Q9NQT4) | 0.171 | 0.116
FAM126A_Q9BYI3_300_CIQVEITPTSSR (UniProt Q9BYI3) | 0.0316 | 0.0159
FAM102B_Q5T8I3_222_VSGYSTCHSR (UniProt Q5T8I3) | 0.0214 | -0.118
ETFA_P13804_109_QFNYTHICAGASAFGK (UniProt P13804) | -0.113 | -0.0426
ERBIN_Q96RT1_68_QLFNCQSLHK (UniProt Q96RT1) | 0.0538 | 0.0456
ESD_P10768_45_CPALYWLSGLTCTEQNFISK (UniProt P10768) | -0.0956 | -0.154
FAM120B_Q96EK7_700_LDTLLACFNLSSSR (UniProt Q96EK7) | 0.116 | 0.383
EZH2_Q15910_588_ECDPDLCLTCGAADHWDSK (UniProt Q15910) | -0.00347 | 0.101
FAM114A2_Q9NRY5_388_SLAELTACSIELFHK (UniProt Q9NRY5) | 0.0896 | 0.101
ETFDH_Q16134_266_ANCEPQTYGIGLK (UniProt Q16134) | 0.139 | 0.0421
ERO1A_Q96HE7_104_PCQSDEVPDGIK (UniProt Q96HE7) | -0.0251 | 0.0181
FAM102B_Q5T8I3_254_NTSVGSTSTGVESILEPCDEIEQK (UniProt Q5T8I3) | 0.0722 | -0.0455
FAM120A_Q9NZB2_919_VAAASGHCGAFSGSDSSR (UniProt Q9NZB2) | 0.103 | -0.171
FABP5_Q01469_67_TTQFSCTLGEK (UniProt Q01469) | -0.00176 | 0.0861
FAF2_Q96CS3_194_NTLCAPEVISLINTR (UniProt Q96CS3) | -0.184 | -0.0772
ESCO1_Q5FWF5_376_CILNGINSSAK (UniProt Q5FWF5) | -0.122 | -0.215
ERCC2_P18074_663_HAAQCVGR (UniProt P18074) | -0.0609 | 0.01

2 entries from above, as labelled records:
FAM102B_Q5T8I3_222_VSGYSTCHSR (UniProt Q5T8I3)
  probe-labelled cysteine peptide fold change (10 µM) = 0.0214; probe-labelled cysteine peptide fold change (50 µM) = -0.118
FABP5_Q01469_67_TTQFSCTLGEK (UniProt Q01469)
  probe-labelled cysteine peptide fold change (10 µM) = -0.00176; probe-labelled cysteine peptide fold change (50 µM) = 0.0861
